Laboratory results from PubChem BioAssay AID1347076 (National Center for Advancing Translational Sciences (NCATS), 2019).
Hit rate of the full screen: of about 400,000 compounds, about 13,000 (3.2%) were called active. The shares of active, inactive and inconclusive entries below differ from those in the screen. Calls follow the shape of the dose curve; as a rule, active = well fitted cell-killing curve with a large enough effect; inconclusive = small, poorly fitted or top-dose-only effect, or effect the other way; inactive = flat fitted curve, though single readings scatter. Where the call is inconclusive, the potency comes from a doubtful curve fit.

Experiment: qHTS assay for MDR1-selective chemotherapeutics: Primary screen using the drug-selected MDR subline cells KB-V1; also: nearly all actives have a fitted effect of over 60% in size
Conditions: KB-V1 MDR cells viability, CellTiter-Glo, 72 h; activity change, negative = cytotoxicity: at 46.1 µM (top of the series)
Summary of the method: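 Compound-treated KB-V1 multidrug-resistant cells, 72 h, 37 degrees C; viability by CellTiter-Glo. Fitted qHTS curves give the values.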
% is scaled to controls: 0 for no effect and ±100 for the full control effect; potency is read from the fitted curve at half-maximal effect.

Row | SMILES | Potency | activity change, negative = cytotoxicity
1 | Oc1ccc(C(c2nnnn2CCc2ccccc2)N2CCN(c3nc4ccccc4s3)CC2)cc1 (stereo unspecified) | inactive | 
2 | CCOc1ccc(C(=O)NCc2ccccc2)cc1Br | active: 18.4 µM | 
3 | O=C(Nc1ccc([N+](=O)[O-])cn1)c1ccc(Br)o1 | inactive | 
4 | Cc1nnc(SCC(=O)c2c(N)n(C3CC3)c(=O)[nH]c2=O)n1-c1ccccc1 | inconclusive: 29.1 µM [rising, single point] | 
5 | COc1ccc(-c2nn(-c3ccccc3)cc2/C=N/Nc2ccccn2)cc1OC | active: 3.66 µM | 
6 | CCN(CC(=O)Nc1c(F)cccc1F)C(=O)C1CCN(S(=O)(=O)c2ccc(C)cc2C)CC1 | inactive | 
7 | NC(c1csc(Nc2nncc3ccccc23)n1)C1CCCCC1 (stereo unspecified) | inconclusive: 29.1 µM [cytotoxic, single point] | 
8 | CCCCN(C(=O)c1ccc([N+](=O)[O-])s1)c1c(N)n(CCCC)c(=O)[nH]c1=O | inconclusive: 29.1 µM [rising, single point] | 
9 | O=C1CCC(C(=O)OCC(=O)N2N=C3/C(=C/c4ccccc4)CCCC3C2c2ccccc2)N1 (stereo unspecified) | inconclusive: 18.4 µM [cytotoxic, partial curve] | 
10 | Cc1ccccc1-n1nnnc1-c1ccccc1 | inactive | 
11 | O=C(Nc1ccc(C(=O)OCc2cc(=O)n3nc(C4CC4)sc3n2)cc1)c1ccccc1 | inactive | 
12 | O=C(CCCSc1nc2ccccc2[nH]1)Nc1nnc(-c2ccccc2)o1 | inactive | 
13 | COc1ccc(C(=O)C[C@@H]2OC3CCCCC3N2S(=O)(=O)c2ccc(C)cc2)cc1OC (stereo partly specified) | inconclusive: 10.3 µM [cytotoxic, partial curve, poor fit] | 
14 | Cc1ccc(S(=O)(=O)N2CCOCC2)cc1NC(=O)CN1CCN(C)CC1 | inactive | 
15 | COc1ccc(N2CCN(C(=O)CSc3nc4[nH]ncc4c(=O)n3-c3cccc4ccccc34)CC2)cc1 | inconclusive: 32.6 µM [cytotoxic, partial curve, poor fit] | 
16 | Cc1ccc(NC(=O)C2CCCN2C(=O)c2cccs2)cc1C (stereo unspecified) | inactive | 
17 | CSCCC(C(=O)NC(C)(C)C)n1c(-c2ccc3c(c2)OCO3)nc2ccccc21 (stereo unspecified) | inconclusive: 4.61 µM [cytotoxic, partial curve] | 
18 | Cc1c(C(=O)Nc2ccc(Cc3ccncc3)cc2)cccc1[N+](=O)[O-] | inactive | 
19 | O=C(Nc1ccc(Oc2ccc(Cl)cc2)c(Cl)c1)c1cc(I)cc(I)c1O | inconclusive: 20.6 µM [cytotoxic, single point] | 
20 | O=C(OCc1nnc(-c2ccc([N+](=O)[O-])cc2)o1)c1ccc(F)c(S(=O)(=O)N2CCOCC2)c1 | inactive | 
21 | Cc1cc(C)n2nc(SCc3nnc(SCc4ccccc4C)s3)nc2n1 | active: 20.6 µM | 
22 | O=C(c1ccc(Oc2ccc(C(F)(F)F)cn2)cc1)N1CCN(c2ccccc2)CC1 | active: 20.6 µM | 
23 | CN(CC(=O)Nc1ccc(OC(F)(F)F)cc1)C(=O)c1ccccc1SCC(=O)N1CCCC1 | active: 7.31 µM | 
24 | CCc1n[nH]c(=S)n1/N=C/c1c[nH]c2ccc(Br)cc12 | inconclusive: 25.9 µM [cytotoxic, single point] | 

Row | SMILES | Potency | activity change, negative = cytotoxicity
25 | CCCCN1C(=O)C(CC(=O)NCC2CCCCC2)CC(C(=O)N2CCOCC2)=C1C (stereo unspecified) | inactive | 
26 | COc1cccc(CNC(=O)C2CCCN(S(=O)(=O)N(C)c3ccc(F)cc3)C2)c1OC (stereo unspecified) | inconclusive: 18.4 µM [cytotoxic, partial curve] | 
27 | O=C(Nc1cccc2c1CCCC2)c1cc(C2CCCCN2C(=O)c2cccs2)on1 (stereo unspecified) | inconclusive: 29.1 µM [cytotoxic, single point] | 
28 | CN1CCN(c2nc(-c3ccc(Br)cc3)nnc2-c2ccccc2)CC1 | active: 25.9 µM | 
29 | COc1ccc(OC(=O)N2C/C(=C/c3ccccc3)C(=O)/C(=C\c3ccccc3)C2)cc1 | inconclusive: 2.31 µM [cytotoxic, partial curve, poor fit] | 
30 | COc1ccccc1C(=O)NCCC(=O)NC1CCCCCC1 | inactive | 
31 | CC1=C(C(=O)N(C(C)C)C(C)C)CC(CC(=O)NC2CC2)C(=O)N1Cc1ccc(C(C)(C)C)cc1 (stereo unspecified) | inconclusive: 2.91 µM [cytotoxic, full curve] | 
32 | Cc1cc(N2C(=O)C(O)=C(C(=O)c3ccco3)C2c2cccc(O)c2)no1 (stereo unspecified) | inconclusive: 5.17 µM [rising, full curve, poor fit] | 
33 | COc1cc2c(cc1OC)C1Cc3ccc(OC)c(OC)c3C[N+]1([O-])CC2 (stereo unspecified) | inactive | 
34 | CC(=O)c1ccc(NC(=O)CSc2nnc(-c3ccoc3C)n2Cc2ccccc2)cc1 | inconclusive: 9.2 µM [cytotoxic, partial curve, poor fit] | 
35 | O=C1CC(N2CCCCCC2)C(=O)N1c1ccc2c(c1)OCO2 (stereo unspecified) | inactive | 
36 | O=C(COc1ccccc1C(=O)Nc1ccccc1)Nc1ccccc1-c1ccccc1 | inactive | 
37 | COc1cccc(OCc2cc(/C=N/Nc3ccc(C(=O)O)cc3)ccc2OC)c1 | inactive | 
38 | Cc1c(NC(=O)C(C)OC(=O)c2ccc([N+](=O)[O-])s2)c(=O)n(-c2ccccc2)n1C (stereo unspecified) | inconclusive: 29.1 µM [rising, single point] | 
39 | COc1ccc(N(CC(=O)Nc2cccc(C)c2)S(=O)(=O)c2c(C)n[nH]c2C)cc1 | inconclusive: 18.4 µM [cytotoxic, single point] | 
40 | COc1ccc(-n2ncc3c2CC(C)(C)CC3NC(=O)c2cnc(C)cn2)cc1 (stereo unspecified) | inconclusive: 2.59 µM [cytotoxic, partial curve, poor fit] | 
41 | COC(=O)C1(C)NC(c2ccc(O)cc2)C2C(=O)N(c3ccccc3)C(=O)C21 (stereo unspecified) | inactive | 
42 | CCOC(=O)N1CCN(S(=O)(=O)c2ccc(OCC)cc2)CC1 | active: 16.4 µM | 
43 | COc1ccc(N=Nc2nc3ccc(Br)cc3n2C)cc1 | inconclusive: 18.4 µM [cytotoxic, partial curve, poor fit] | 
44 | O=C(NC(=S)NCc1ccccc1)c1cccnc1 |  | inconclusive: 36.2%
45 | CCOc1cc(OCC)cc(C(=O)N2CCC[C@H]2C(=O)N2CCC[C@H]2C(=O)N[C@H](C)c2ccccc2)c1 | inactive | 
46 | CCOC(=O)Oc1c(OC)cc(C(=O)O[C@@H]2C[C@@H]3CN4CCc5c([nH]c6cc(OC)ccc56)[C@H]4C[C@@H]3[C@H](C(=O)OC)[C@H]2OC)cc1OC | inconclusive: 20.6 µM [cytotoxic, single point] | 
47 | O=C(NCc1ccccc1)C(c1ccccc1)n1c(=O)c(-c2ccco2)nc2ccccc21 (stereo unspecified) | inactive | 
48 | Nc1ccc2nc3c(c(Cl)c2c1)CCCC3 | inconclusive: 20.6 µM [cytotoxic, single point] | 

Complete entries as entered above:
CCOC(=O)Oc1c(OC)cc(C(=O)O[C@@H]2C[C@@H]3CN4CCc5c([nH]c6cc(OC)ccc56)[C@H]4C[C@@H]3[C@H](C(=O)OC)[C@H]2OC)cc1OC in the list: Potency: inconclusive: 20.6 µM [cytotoxic, single point]
O=C(NC(=S)NCc1ccccc1)c1cccnc1 in the list: activity change, negative = cytotoxicity: inconclusive: 36.2%
Oc1ccc(C(c2nnnn2CCc2ccccc2)N2CCN(c3nc4ccccc4s3)CC2)cc1 (stereo unspecified) in the list: Potency: inactive
CCOC(=O)N1CCN(S(=O)(=O)c2ccc(OCC)cc2)CC1 in the list: Potency: active: 16.4 µM

Following part

Row | SMILES | Potency | activity change, negative = cytotoxicity
49 | COc1ccc(CC(=O)Nc2ccc(S(=O)(=O)N(C)C)cc2)cc1OC | inactive | 
50 | O=C(NCC(c1cccs1)N1CCOCC1)c1ccc(Br)o1 (stereo unspecified) | inconclusive: 20.6 µM [cytotoxic, single point] | 
51 | Cc1cc(S(=O)(=O)N2CCCCCC2)c(Cl)cc1Cl | inconclusive: 29.1 µM [cytotoxic, single point] | 
52 | Cc1ccc(C)c(CSC2=NCCN2C(=O)c2cccs2)c1 | inconclusive: 9.2 µM [cytotoxic, partial curve] | 
53 | Cc1ccc(OCCC(=O)OCC(=O)Nc2cc(C)cc(C)c2)cc1 | inconclusive: 25.9 µM [rising, single point] | 
54 | COCCCNC(=O)c1cccn2c(=O)c3cc4ccccc4cc3nc12 | active: 4.11 µM | 
55 | Cc1cc(C)n(-c2nc3ccccc3c(=O)n2OCC(C)C)n1 | inactive | 
56 | COc1ccccc1NC(=O)Nc1nc(CC(=O)N2CCN(c3ccccc3OC)CC2)cs1 | inconclusive: 23.1 µM [cytotoxic, single point] | 
57 | NC(Cc1ccccc1)c1csc(Nc2nccc(C(F)(F)F)n2)n1 (stereo unspecified) | inconclusive: 20.6 µM [cytotoxic, single point] | 
58 | Nc1[nH]c(C(=O)c2ccccc2)c(-c2ccc(Cl)cc2Cl)c1C(=O)c1ccc(Cl)c(Cl)c1 | inconclusive: 0.651 µM [cytotoxic, full curve, poor fit] | 
59 | Cc1cccc(N2CCN(C(=O)c3cc4c(=O)[nH]c5ccccc5c4n3C)CC2)c1C | inconclusive: 4.61 µM [cytotoxic, full curve] | 
60 | CCCOc1ccc(C(=O)NNC(=S)NC(=O)c2ccco2)cc1 | inactive | 
61 | CSCCC(NC(=O)COc1ccccc1)C(=O)OCC(=O)c1ccccc1 (stereo unspecified) | inactive | 
62 | COCCn1c(C)cc(C(=O)COC(=O)/C=C/c2ccc(OC)cc2OC)c1C | inactive | 
63 | COc1ccc(C(=O)c2c(NC(C)=O)sc3c2CCN(C(=O)OC(C)(C)C)C3)cc1 | inconclusive: 5.8 µM [cytotoxic, partial curve, poor fit] | 
64 | COc1cccc(CNC(C)(C)CO)c1OCc1ccc(Cl)cc1 | inactive | 
65 | Cc1onc(-c2ccccc2Cl)c1C(=O)Nc1ccc(S(=O)(=O)NCC2CCCO2)cc1 (stereo unspecified) | inconclusive: 20.6 µM [cytotoxic, partial curve, poor fit] | 
66 | CCOc1ccccc1NC(=O)CSc1nc2cccnc2n1C | inconclusive: 18.4 µM [cytotoxic, partial curve] | 
67 | CCc1cccc(NS(=O)(=O)c2ccc3c(c2)CC(C)N3C(=O)C2CC2)c1 (stereo unspecified) | active: 13 µM | 
68 | COc1ccnc(CSC(N)=Nc2ccc(F)cc2)c1 | inconclusive: 32.6 µM [cytotoxic, single point] | 
69 | c1ccc(-c2ccc(-c3ccccn3)s2)nc1 | inconclusive: 14.6 µM [cytotoxic, partial curve, poor fit] | 
70 | CCCCC(=O)Nc1ccc(N2CCCC2)cc1 | inconclusive: 29.1 µM [cytotoxic, single point] | 
71 | COc1ccc(CCNC(=O)CSc2nnnn2Cc2ccc3c(c2)OCO3)cc1OC | inconclusive: 10.3 µM [cytotoxic, partial curve, poor fit] | 
